Experimental data as given in PMC8002179.
Results are given in words; binding and its absence hold for the method and conditions named. Binding seen in cells or lysates may run through a third protein. Some entries that bind do so weakly or less than the wild type.

Protein sequences, listed by entry. Tags and fused reporters are not part of them.
UniProt P25106: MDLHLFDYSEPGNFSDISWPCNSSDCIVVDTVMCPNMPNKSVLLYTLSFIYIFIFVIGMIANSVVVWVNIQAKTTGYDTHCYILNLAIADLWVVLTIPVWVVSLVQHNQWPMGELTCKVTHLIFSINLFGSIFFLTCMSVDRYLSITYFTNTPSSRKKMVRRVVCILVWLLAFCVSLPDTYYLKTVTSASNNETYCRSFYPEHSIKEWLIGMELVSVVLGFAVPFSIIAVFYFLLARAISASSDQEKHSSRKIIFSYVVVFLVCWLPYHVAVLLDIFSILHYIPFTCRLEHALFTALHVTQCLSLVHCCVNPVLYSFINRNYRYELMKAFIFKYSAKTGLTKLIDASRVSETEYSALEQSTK
UniProt P35626: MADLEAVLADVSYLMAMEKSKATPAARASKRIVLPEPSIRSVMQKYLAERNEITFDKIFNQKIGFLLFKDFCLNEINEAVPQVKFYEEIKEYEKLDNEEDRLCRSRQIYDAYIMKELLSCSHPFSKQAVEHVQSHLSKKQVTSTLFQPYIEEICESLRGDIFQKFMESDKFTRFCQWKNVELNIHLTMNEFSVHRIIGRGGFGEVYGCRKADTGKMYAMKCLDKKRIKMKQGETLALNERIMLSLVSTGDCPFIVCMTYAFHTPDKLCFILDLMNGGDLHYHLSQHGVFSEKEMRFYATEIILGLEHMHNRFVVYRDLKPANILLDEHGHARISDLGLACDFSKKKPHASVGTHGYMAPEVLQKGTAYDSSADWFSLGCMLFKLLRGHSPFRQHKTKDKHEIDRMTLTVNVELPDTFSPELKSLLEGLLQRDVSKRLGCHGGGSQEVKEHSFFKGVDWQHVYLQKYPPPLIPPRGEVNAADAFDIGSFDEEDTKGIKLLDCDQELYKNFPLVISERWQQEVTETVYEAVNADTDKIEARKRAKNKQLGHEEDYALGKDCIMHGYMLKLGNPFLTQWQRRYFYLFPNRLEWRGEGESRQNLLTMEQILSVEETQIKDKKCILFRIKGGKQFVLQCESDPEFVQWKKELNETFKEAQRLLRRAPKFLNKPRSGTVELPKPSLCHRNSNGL
UniProt P25098: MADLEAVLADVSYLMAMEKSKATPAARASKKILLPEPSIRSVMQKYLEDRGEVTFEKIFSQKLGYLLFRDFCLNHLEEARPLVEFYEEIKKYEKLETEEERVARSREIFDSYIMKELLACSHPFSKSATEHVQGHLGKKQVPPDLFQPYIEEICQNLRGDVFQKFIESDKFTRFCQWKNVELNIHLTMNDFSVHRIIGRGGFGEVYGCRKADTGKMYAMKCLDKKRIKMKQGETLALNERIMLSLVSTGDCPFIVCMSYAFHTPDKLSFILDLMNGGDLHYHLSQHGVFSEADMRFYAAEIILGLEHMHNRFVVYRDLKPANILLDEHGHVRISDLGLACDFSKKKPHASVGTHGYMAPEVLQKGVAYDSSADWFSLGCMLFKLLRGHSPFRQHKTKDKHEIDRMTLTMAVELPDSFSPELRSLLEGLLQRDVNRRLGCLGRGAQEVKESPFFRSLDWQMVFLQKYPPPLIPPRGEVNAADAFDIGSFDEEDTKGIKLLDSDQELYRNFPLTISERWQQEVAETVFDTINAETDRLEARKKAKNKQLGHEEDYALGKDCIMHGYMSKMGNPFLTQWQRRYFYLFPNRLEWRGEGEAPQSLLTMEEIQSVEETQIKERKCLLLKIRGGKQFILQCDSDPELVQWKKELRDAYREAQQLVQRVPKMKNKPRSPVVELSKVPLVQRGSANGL
UniProt P43250: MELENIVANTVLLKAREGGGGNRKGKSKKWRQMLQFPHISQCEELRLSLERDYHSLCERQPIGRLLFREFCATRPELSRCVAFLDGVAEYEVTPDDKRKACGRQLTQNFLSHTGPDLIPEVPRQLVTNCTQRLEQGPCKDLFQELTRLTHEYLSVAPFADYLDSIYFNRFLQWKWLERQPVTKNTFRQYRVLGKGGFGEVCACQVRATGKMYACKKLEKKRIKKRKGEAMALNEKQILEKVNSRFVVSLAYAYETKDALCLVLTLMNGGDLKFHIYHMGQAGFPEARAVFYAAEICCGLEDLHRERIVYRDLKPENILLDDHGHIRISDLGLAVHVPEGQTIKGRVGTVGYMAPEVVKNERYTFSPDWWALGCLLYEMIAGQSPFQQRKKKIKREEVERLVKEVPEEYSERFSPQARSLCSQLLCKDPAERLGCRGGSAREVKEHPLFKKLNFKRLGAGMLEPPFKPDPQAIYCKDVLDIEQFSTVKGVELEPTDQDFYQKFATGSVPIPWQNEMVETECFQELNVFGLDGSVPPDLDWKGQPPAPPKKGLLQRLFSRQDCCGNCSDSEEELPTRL
UniProt P34947: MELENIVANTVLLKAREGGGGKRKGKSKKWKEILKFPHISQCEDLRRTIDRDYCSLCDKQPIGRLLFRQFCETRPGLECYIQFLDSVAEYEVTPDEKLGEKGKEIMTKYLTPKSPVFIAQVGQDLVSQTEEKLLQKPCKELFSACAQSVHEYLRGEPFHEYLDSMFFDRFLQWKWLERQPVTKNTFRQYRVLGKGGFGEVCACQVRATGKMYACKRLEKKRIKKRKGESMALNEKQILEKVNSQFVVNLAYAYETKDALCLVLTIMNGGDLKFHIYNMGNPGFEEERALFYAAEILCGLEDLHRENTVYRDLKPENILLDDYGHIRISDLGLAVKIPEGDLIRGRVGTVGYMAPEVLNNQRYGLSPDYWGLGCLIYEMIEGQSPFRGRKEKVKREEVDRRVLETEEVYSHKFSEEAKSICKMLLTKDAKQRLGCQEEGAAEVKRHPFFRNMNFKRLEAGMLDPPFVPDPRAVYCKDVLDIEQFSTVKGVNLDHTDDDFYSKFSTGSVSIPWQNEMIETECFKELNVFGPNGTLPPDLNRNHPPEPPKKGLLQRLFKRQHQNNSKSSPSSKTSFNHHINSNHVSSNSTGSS

Each substance was assayed against wild type ACKR3 fused with Renilla luciferase (RLuc) on the C-terminal tail (human) (UniProt P25106) (assay: FRET or BRET; BRET in living HEK293T cells co-transfected with ACKR3-RLuc (WT or mutant, donor) and an eYFP- or mVenus-tagged partner (acceptor); Hanks' balanced salt solution, coelenterazine-h; stimulated with 100 nM CXCL12 and read in real time; some panels with 10 µM CMPD101 pre-incubation for 30 min).

| binding | Substance |
| --- | --- |
| binds | G-protein-coupled receptor kinase 3 fused to the mVenus fluorescent protein (from UniProt P35626 1-688) (enzyme) |
| binds | G-protein-coupled receptor kinase 2 fused to the mVenus fluorescent protein (from UniProt P25098 1-689) (enzyme) |
| no binding | G-protein-coupled receptor kinase 6 fused to the mVenus fluorescent protein (from UniProt P43250 1-576) (enzyme) |
| binds | G-protein-coupled receptor kinase 5 fused to the mVenus fluorescent protein (from UniProt P34947 1-590) (enzyme) |
